This note sets out measurements from patent publication US11661583B2, “Drug discovery platform for Duchenne cardiomyopathy” (University of Washington, priority 2015, dated 2023).

In this series the test system is dystrophin deficient cardiomyocytes. Briefly: High-throughput hypotonic stress cell viability (intracellular ATP) screen. Conditions: 384-well; 18 hours compound incubation, then 30 minutes at 12.5% normal osmolarity; CELLTITER-GLO; vs average of DMSO control wells; tested at 10^-8 to 10^-5 M, concentration not given. A general note: In ATP-based viability assays light output follows the ATP content of the culture.

Each structure is given as a SMILES string. Structures can show the parent of a compound that is named as a salt.

Take `CCCCc1oc2ccccc2c1C(=O)c1cc(I)c(OCCN(CC)CC)c(I)c1` [AMIODARONE HYDROCHLORIDE]: the “Average of % viability” value is reported as 168.14 ± 8.45%.
The figure for `CC(C)NCC(O)COc1ccc(CC(N)=O)cc1` (centres unmarked) [ATENOLOL] is 171.27 ± 1.77%.
